Test results reported in paper PMC10043283, “Neuraminidase 1 promotes renal fibrosis development in male mice” (Nature Communications, 2023).
These are yes or no findings as the source states them, for the method shown. In cells and extracts the contact can be indirect. Here binding means that the protein was enriched with, or labelled near, the bait; the list need not be complete.

Biological target: neuraminidase 1 (NEU1), endogenous (human (endogenous in HK-2 and in human kidney biopsies)) (UniProt Q99519)
Test: affinity purification with mass spectrometry; co-precipitates with NEU1 analysed by LC-MS/MS (Q Exactive HF, MaxQuant); cells not given

- binding: binds
B1: TGFβ type I receptor ALK5, endogenous (receptor, UniProt P36897 34-503)
chain: LQCFCHLCTKDNFTCVTDGLCFVSVTETTDKVIHNSMCIAEIDLIPRDRPFVCAPSSKTGSVTTTYCCNQDHCNKIELPTTVKSSPGLGPVELAAVIAGPVCFVCISLMLMVYICHNRTVIHHRVPNEEDPSLDRPFISEGTTLKDLIYDMTTSGSGSGLPLLVQRTIARTIVLQESIGKGRFGEVWRGKWRGEEVAVKIFSSREERSWFREAEIYQTVMLRHENILGFIAADNKDNGTWTQLWLVSDYHEHGSLFDYLNRYTVTVEGMIKLALSTASGLAHLHMEIVGTQGKPAIAHRDLKSKNILVKKNGTCCIADLGLAVRHDSATDTIDIAPNHRVGTKRYMAPEVLDDSINMKHFESFKRADIYAMGLVFWEIARRCSIGGIHEDYQLPYYDLVPSDPSVEEMRKVVCEQKLRPNIPNRWQSCEALRVMAKIMRECWYANGAARLTALRIKKTLSQLSQQEGIKM
